Positions count from the first letter of the chain named. Results are given in words; binding and its absence hold for the method and conditions named. Some binding calls cover weakened binding; strength is not graded here. One block for each binder: values may come before it.
Target: recombinant human TFPI (tissue factor pathway inhibitor) (human) (UniProt P10646)
Experiment: yeast-display scFv, FACS with biotinylated TFPI

Protein sequences, listed by entry. Tags and fused reporters are not part of them. Lines headed by an entry give the natural chain unless they say otherwise; changes in a name come on top.
UniProt P10646: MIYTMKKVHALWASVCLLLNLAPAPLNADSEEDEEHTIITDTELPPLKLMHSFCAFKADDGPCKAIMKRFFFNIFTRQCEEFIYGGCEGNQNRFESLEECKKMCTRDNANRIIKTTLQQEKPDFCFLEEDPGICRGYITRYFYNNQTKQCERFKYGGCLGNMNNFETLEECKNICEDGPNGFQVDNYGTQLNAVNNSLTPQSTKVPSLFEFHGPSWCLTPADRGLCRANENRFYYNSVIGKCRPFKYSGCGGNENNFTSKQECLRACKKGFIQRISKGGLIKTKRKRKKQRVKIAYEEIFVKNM

binding: binds
B1: clone 22 (antibody, V domains shown)
VH: EVQLVESGGGLVKPGGSLRLSCAASGFTFSSYAMNWVRQAPGKGLEWVSTITTGGSHTYYADSVEGRFTISRDNAKNSLYLQMNSLRAEDTAVYYCARQDGHFLMDYWGQGTLVTVSS
VL: DVVMTQTPLSLPVTLGQPASISCKSSPSLLDVDGKTYLNWLQQRPGQSPKRLIYLVSKLDSGVPDRFTGSGSGTDFTLKISRVEAEDVGVYYCWQGTYFPFTFGQGTKVEIKR

binding: binds
B2: clone 23 (antibody, V domains shown)
VH: B1 VH with S31H, H57Y
VL: B1 VL with V32I, Y98H, F99L
